Measured values as given in paper PMC10298649.
No constants are given. Whether binding was seen depends on the method and setting. Binding seen in cells or lysates may run through a third protein. Some entries that bind do so weakly or less than the wild type. For part of these data: Where a sequence is shown, tags or fusion partners need not be part of it. Blank lines part the entries; values can stand above or below the binder they belong to.

Key:
[1] = molecular target: T1, HD2C (co-IP) (Arabidopsis) (UniProt Q9LZR5); assay: co-IP; Co-IP of HD2C by a former colleague; no details given
T1 sequence: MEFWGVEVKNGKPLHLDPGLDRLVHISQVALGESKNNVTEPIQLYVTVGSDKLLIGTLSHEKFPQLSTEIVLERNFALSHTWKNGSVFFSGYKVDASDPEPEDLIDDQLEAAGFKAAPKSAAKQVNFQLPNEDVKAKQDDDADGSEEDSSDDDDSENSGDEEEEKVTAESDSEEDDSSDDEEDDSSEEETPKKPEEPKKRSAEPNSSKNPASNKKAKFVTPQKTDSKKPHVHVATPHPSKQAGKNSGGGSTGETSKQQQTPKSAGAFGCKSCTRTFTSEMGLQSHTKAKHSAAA

[2] = molecular target: T2, FIB2 fused to cYFP (Arabidopsis thaliana) (UniProt Q94AH9); assay: split reporter; BiFC in Arabidopsis mesophyll protoplasts; nYFP and cYFP fusions from pBiFCt-2in1-NN, PEG transformation; YFP signal by confocal microscopy after 16 h to 24 h in the dark (legend: 24 h at 25 °C); RFP as internal marker for transformation
T2 sequence: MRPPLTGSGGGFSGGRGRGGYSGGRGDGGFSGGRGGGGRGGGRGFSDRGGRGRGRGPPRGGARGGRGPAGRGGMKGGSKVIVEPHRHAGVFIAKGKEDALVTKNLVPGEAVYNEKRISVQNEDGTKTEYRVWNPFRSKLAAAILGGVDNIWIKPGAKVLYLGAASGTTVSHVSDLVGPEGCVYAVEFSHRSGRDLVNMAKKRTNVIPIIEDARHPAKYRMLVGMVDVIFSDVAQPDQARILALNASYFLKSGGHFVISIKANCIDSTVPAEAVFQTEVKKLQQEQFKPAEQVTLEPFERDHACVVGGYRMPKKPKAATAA

[3] = molecular target: T2, FIB2 fused to cYFP (Arabidopsis thaliana); assay: split reporter; BiFC of HD2C, in vivo (Supplement Figure S2); details not shown

binding [1]: binds
B1: FIB2 (co-IP) (protein, UniProt Q94AH9 1-320)
chain: T2 sequence

binding [2]: binds
B2: HD2B fused to nYFP (protein, UniProt Q56WH4 1-306)
chain: MEFWGVAVTPKNATKVTPEEDSLVHISQASLDCTVKSGESVVLSVTVGGAKLVIGTLSQDKFPQISFDLVFDKEFELSHSGTKANVHFIGYKSPNIEQDDFTSSDDEDVPEAVPAPAPTAVTANGNAGAAVVKADTKPKAKPAEVKPAEEKPESDEEDESDDEDESEEDDDSEKGMDVDEDDSDDDEEEDSEDEEEEETPKKPEPINKKRPNESVSKTPVSGKKAKPAAAPASTPQKTEEKKKGGHTATPHPAKKGGKSPVNANQSPKSGGQSSGGNNNKKPFNSGKQFGGSNNKGSNKGKGKGRA

binding [3]: binds
B3: HD2C (BiFC construct) (protein, UniProt Q9LZR5 1-294)
chain: T1 sequence
